Data from PMC12040169 (PLOS Biology, 2025).
Some of the results follow.

Test system: T1, CTL2-GFP (C. trachomatis L2/434/Bu, GFP-expressing)
T1 construct: L2/434/Bu, GFP-expressing
Design: species or system HeLa; Intracellular C. trachomatis growth in HeLa cells, bulk GFP fluorescence relative to DMSO
Settings: bulk GFP, single well; 28.5 h, 10 µM; inhibitor

Point of comparison: O=C(N[C@H]1CCN2C(=O)c3cc(-c4ccccc4)ccc3NC(=O)[C@H]12)c1cccs1 [CBK289350], “% of control remaining” value 133.963%. Against it:
- CC1(NC(=O)CC[N+]23CCN(CC2)CC3)CS(=O)(=O)CC1S(=O)(=O)[O-] (stereo not drawn) [CBK262518] — lower, 121.301%
- Cc1onc(-c2ccccc2)c1C(=O)N1CCC1 [CBK160450] — higher, 155.017%
- COc1cc(Nc2cc(-c3cccc(N)c3)ncn2)cc(OC)c1OC [CBK037713] — lower, 131.028%
- CCOc1ccc(CCC(=O)N2CCCc3c(cnn3C)C2)cc1 [CBK285276] — higher, 142.214%
- Cc1cc(Cl)ccc1CNS(=O)(=O)c1cccs1 [CBK044714] — lower, 97.1998%
- COc1ccc(CCN2CCC(Oc3nccnc3OCc3cccnc3)CC2)cc1OC [CBK083179T] — lower, 112.552%
- Cc1nn(C)c(N2CCNCC2)c1NC(=O)c1cc(-c2ccccc2)oc1C [CBK050356T] — lower, 106.738%
- CCCc1ccc(S(=O)(=O)Nc2cccc(C(=O)Nc3ccc(F)cc3)c2)cc1 [CBK038978] — lower, 78.6614%
- Cc1cn(CC(=O)N2CCC(Cn3cncn3)(C3CCCCC3)CC2)c(=O)[nH]c1=O [CBK136800] — lower, 125.544%
- COc1ncc(-c2nccnc2OCCOc2ccccc2)c(OC)n1 [CBK106752] — lower, 107.961%
- CCOc1ccccc1-c1nnc(SCC(=O)NC2CCCCC2)o1 [CBK268728] — lower, 49.214%
- O=C(O)c1cccc(NC(=O)c2cccc(S(=O)(=O)Nc3ccc(Cl)cc3)c2)c1 [CBK261261] — lower, 107.285%
- COc1ccc(-c2csc(/C(C#N)=C/Nc3ccc(S(=O)(=O)Nc4nccs4)cc3)n2)cc1 [CBK262374] — lower, 20.6436%
- CN/C(=N\C1CCCCC1)N1CCOCC1 [CBK023800G] — lower, 96.6171%
- CN1CCN(NC(=O)c2cc(C(=O)c3ccc(Cl)cc3Cl)c[nH]2)CC1 [CBK107420] — lower, 105.368%
- c1cncc(-c2nccnc2NCC2CC2)c1 [CBK037310] — lower, 125.914%
- CCOC(=O)c1csc(C2CCCN2C(=O)c2ccsc2)n1 (stereo not drawn) [CBK304125] — higher, 151.766%
- Cc1cc(C)n2nc(C(=O)N/N=C/c3ccc(O)cc3)nc2n1 [CBK261765] — lower, 108.855%
- CC(C(=O)Nc1ccc(F)c(F)c1)n1cc([N+](=O)[O-])cn1 (stereo not drawn) [CBK268771] — lower, 105.531%
- CN(C)c1cccc(C2CCCN2c2nc3c(cnn3C)c(=O)[nH]2)c1 (stereo not drawn) [CBK305220] — lower, 132.935%
- COc1ccc(S(=O)(=O)NC[C@H]2C[C@@H]3CC[N@]2C[C@@H]3CN2CCOCC2)cc1 [CBK288761] — lower, 122.672%
- O=C(O)CCn1oc(=O)c2ccccc21 [CBK020340] — lower, 102.296%
- O=C(Nc1ccc(Br)cc1)c1c(O)n2c3c(cccc3c1=O)CCC2 [CBK291207] — lower, 86.2047%
- CNC(=O)c1ccc(CN(Cc2noc(C(C)C)n2)C2CC2)cc1 [CBK304084] — lower, 126.228%
- CCC(=O)N1CCCc2cc(C(O)CN3CCC(C)CC3)ccc21 (stereo not drawn) [CBK282144] — lower, 127.03%
- CN1CCN(C(=O)CC[C@@H]2CNC(=O)[C@@H]3C[C@H](NC(=O)c4ccccc4)CN23)CC1 [CBK289014] — higher, 149.299%
- Nc1cc2c(ncn2[C@@H]2C[C@@H](O)[C@@H](CO)O2)c(=O)[nH]1 [CBK201196] — higher, 173.473%
- N#Cc1cc(F)cc(F)c1NC(=O)c1cccs1 [CBK066832] — lower, 97.3824%
- O=C(Cc1c[nH]c2ccccc12)N1CCC(F)CC1 [CBK200274] — lower, 77.2827%
- CCCCC1=NN2C(=N)/C(=C/c3cn(Cc4ccc([N+](=O)[O-])cc4)c4ccccc34)C(=O)N=C2S1 [CBK264320] — lower, 132.279%
- Cc1ccc(S(=O)(=O)NCC2CCC(C(=O)Oc3ccc4ccc(=O)oc4c3)CC2)cc1 (stereo not drawn) [CBK093519] — lower, 113.404%
- Cc1cc(CC(=O)N2CCN(CCNC(=O)C3CCCC3)CC2)no1 [CBK306376] — lower, 123.739%
- CC(C)OC(=O)N1CCN(C(=O)c2cn(Cc3cccc(S(C)(=O)=O)c3)nn2)CC1 [CBK160994T] — lower, 132.97%
- O=C(Cn1c([C@@H]2CCCO2)cc2cccnc21)N1CCCCC1 [CBK282286] — lower, 128.053%
- Cc1nc(NC(=O)CN2CCN(c3cccc(Cl)c3)CC2)sc1C [CBK305902] — lower, 80.1403%
- CN(C)c1ccc(Nc2ncnc3c2cnn3CCC#N)cn1 [CBK306231] — lower, 101.519%
- CCOC(=O)CCNC(=O)c1cncc(-c2ccc(C(=O)N3CCOCC3)cc2)c1 [CBK158645] — lower, 122.672%
- CC(C)C(=O)N1CC2(CCN(CCc3cccc4ccccc34)CC2)c2ccccc21 [CBK136978] — lower, 93.3247%
- COc1ccc(F)c(CN2CC3CCCN3C[C@@H]2C)c1 (stereo partly drawn) [CBK284549] — higher, 162.202%
- Cc1cc(C)n(CC(=O)NC(Cc2cccs2)c2nccs2)n1 (stereo not drawn) [CBK284686] — lower, 130.474%
- O=S(=O)(Nc1nnn[nH]1)c1ccc(-c2cc(C(F)(F)F)on2)s1 [CBK062393] — lower, 109.994%
- Cc1nn(CC(=O)NC2CCC2)c(=O)c2cc3ccsc3n12 [CBK284103] — lower, 98.004%
- CC[C@H](Cn1ncc2ccccc2c1=O)NC(=O)c1ccc2c(c1)Sc1ccccc1O2 [CBK286173] — lower, 131.341%
- FC(F)(F)c1ccnc(OCc2cccnc2)n1 [CBK115902] — lower, 105.288%
- Cc1ccc2nc(-c3ccccc3)cc(C(=O)NCCCn3ccnc3)c2c1 [CBK268526] — higher, 138.892%
- O=C(O)C1C2C=CC3(CN(C/C=C/c4ccccc4)C(=O)C13)O2 (stereo not drawn) [CBK286946] — lower, 125.359%
- CC(=O)Nc1ccc([C@@H](O)[C@H]2COCC(=O)N2Cc2ccc(C(F)(F)F)cc2)cc1 [CBK289678] — higher, 135.009%
- COc1cc(C(c2c[nH]c3ccccc23)c2c[nH]c3ccccc23)ccc1OCC(=O)O [CBK265717] — lower, 129.975%
- CC(C)CC(=O)Nc1nc(OCC(F)(F)F)cnc1-c1ccc(Cl)cc1Cl [CBK145356] — higher, 142.106%
- CCC(C)c1ccccc1NC(=O)c1cc(=O)[nH]c2ccccc12 (stereo not drawn) [CBK297516] — lower, 118.783%
- Cc1cccc(C)c1NC(=O)Cn1nnc(-c2ccc(CN3CCC(C)CC3)cc2)n1 [CBK121194] — lower, 105.139%
- O=C1c2ccccc2NC(C(=O)O)(c2ccccc2)N1c1ccccc1Cl (stereo not drawn) [CBK287169] — higher, 137.079%
- COc1ccc(CCCC(=O)NC2CCCCC2C)cc1 (stereo not drawn) [CBK026124] — higher, 163.349%
- O=C(CC1S/C(=N/N=C/c2ccc(-c3cc([N+](=O)[O-])ccc3Cl)o2)NC1=O)Nc1ccccc1 (stereo not drawn) [CBK264592] — lower, 121.907%
- CCCC(=O)NCc1ccc(-c2cc(CN(C)C)n(C)n2)cc1 [CBK282007] — lower, 129.807%
- Cn1nccc1CCNC(=O)c1cccc(S(=O)(=O)N2CCCCC2)c1 [CBK304363] — higher, 139.09%
- COc1ccc(-c2csc(Nc3ccc(N)cc3)n2)cc1OC [CBK074456] — lower, 102.198%
- CNC(=O)NC(=O)CN1CCC(CNc2ncccc2C#N)C1 (stereo not drawn) [CBK306126] — lower, 123.408%
- CC(C)NC(=O)c1ccccc1Br [CBK026505] — lower, 126.541%
- CC(C)C(=O)N1CCC2(C/C=C/C[C@H]3COCC[C@H]3NC(=O)CNC2=O)CC1 [CBK292157] — higher, 138.208%
- Cc1ccc2c(c1)C(=O)CC1(CC3CCC1N3C(=O)C(C)C)O2 (stereo not drawn) [CBK284468] — higher, 167.83%
- CSCCC(=O)NC1CCCc2nc(N3CCC(CO)CC3)ncc21 (stereo not drawn) [CBK306782] — higher, 175.586%
- CCN(CC)S(=O)(=O)c1cc(C(=O)Nc2ccccc2C(=O)O)c(Cl)cc1Cl [CBK265731] — lower, 102.056%
- COc1ccc(C(=O)NNC(=O)c2cc(OC)cc(OC)c2)cc1 [CBK262616] — lower, 100%
- CCOC(=O)c1cnn(C2CCCN(Cc3ccsc3)C2)c1 (stereo not drawn) [CBK305112] — higher, 136.411%
- COc1ccc(CNC(=O)c2cn[nH]c2-c2ccccc2)c(OC)c1 [CBK288057] — higher, 134.695%
- O=C(Cc1ccccc1)NC(Cc1ccc(Cl)cc1)C(=O)O (stereo not drawn) [CBK286976] — lower, 128.398%
- CS(=O)(=O)c1ccc2nc(Nc3nc4c(F)cccc4s3)sc2c1 [CBK287478] — higher, 137.636%
- COc1ccc(C(NC(=O)C2CCN(C(=O)C(C)(C)C)CC2)c2cnccn2)cc1 (stereo not drawn) [CBK059791] — lower, 108.185%
- CC(C)C(=O)NC(c1ccco1)c1ccc2cccnc2c1O (stereo not drawn) [CBK263277] — lower, 95.0807%
- CCOc1ccccc1OCc1nn2c(-c3ccncc3)nnc2s1 [CBK268535] — lower, 114.235%
- C=C(C)Cn1c(SC(C)C)nnc1-c1cccnc1 [CBK200073] — lower, 113.278%
- CCC1CCc2c(sc(NC(=O)c3cc(-c4ccc(Cl)s4)nc4ccccc34)c2C(N)=O)C1 (stereo not drawn) [CBK262646] — lower, 94.7803%
- COc1ccc2sc(Nc3ccc(F)cc3)nc2c1 [CBK287641] — lower, 132.503%
- CC(C)CC(=O)N1CCCC(n2c(=O)oc3ccc(Cl)cc32)C1 (stereo not drawn) [CBK282891] — lower, 115.779%
- CCc1oc2ccc(Cl)cc2c1C(=O)CCN1CCCCC1 [CBK009675C] — lower, 100%
- O=C(CSc1nnc(-c2ccco2)o1)c1ccc2c(c1)OCCO2 [CBK266387] — higher, 162.09%
